Results: article PMC5432291
Results are given in words; binding and its absence hold for the method and conditions named. In cells and extracts the contact can be indirect. Some entries that bind do so weakly or less than the wild type.

Protein sequences, listed by entry. Tags and fused reporters are not part of them. Lines headed by an entry give the natural chain unless they say otherwise; changes in a name come on top.
UniProt P04792: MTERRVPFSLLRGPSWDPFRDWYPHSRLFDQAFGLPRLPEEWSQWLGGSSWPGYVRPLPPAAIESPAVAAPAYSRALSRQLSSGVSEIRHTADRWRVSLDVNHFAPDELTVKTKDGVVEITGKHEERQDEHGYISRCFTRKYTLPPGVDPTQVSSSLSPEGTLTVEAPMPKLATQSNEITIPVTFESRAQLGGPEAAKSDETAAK
UniProt Q01860: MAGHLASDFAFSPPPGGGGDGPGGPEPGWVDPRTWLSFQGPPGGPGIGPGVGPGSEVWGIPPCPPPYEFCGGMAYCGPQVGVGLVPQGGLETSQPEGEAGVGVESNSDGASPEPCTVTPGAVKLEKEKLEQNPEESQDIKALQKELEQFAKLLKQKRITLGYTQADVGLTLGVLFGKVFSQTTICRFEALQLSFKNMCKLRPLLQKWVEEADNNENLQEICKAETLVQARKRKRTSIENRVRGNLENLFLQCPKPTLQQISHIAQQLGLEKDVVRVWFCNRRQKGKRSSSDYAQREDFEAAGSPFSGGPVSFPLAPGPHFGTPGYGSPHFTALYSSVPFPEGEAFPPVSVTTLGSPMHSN
UniProt P48431: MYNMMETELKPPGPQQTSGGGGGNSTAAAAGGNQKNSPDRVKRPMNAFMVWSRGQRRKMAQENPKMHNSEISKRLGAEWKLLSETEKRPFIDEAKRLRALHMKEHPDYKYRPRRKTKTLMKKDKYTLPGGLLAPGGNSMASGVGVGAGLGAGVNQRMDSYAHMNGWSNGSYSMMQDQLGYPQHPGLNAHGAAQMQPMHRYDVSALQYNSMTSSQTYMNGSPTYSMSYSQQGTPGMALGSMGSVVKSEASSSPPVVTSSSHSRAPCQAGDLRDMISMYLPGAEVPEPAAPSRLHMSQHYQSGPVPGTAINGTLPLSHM
UniProt Q9H9S0: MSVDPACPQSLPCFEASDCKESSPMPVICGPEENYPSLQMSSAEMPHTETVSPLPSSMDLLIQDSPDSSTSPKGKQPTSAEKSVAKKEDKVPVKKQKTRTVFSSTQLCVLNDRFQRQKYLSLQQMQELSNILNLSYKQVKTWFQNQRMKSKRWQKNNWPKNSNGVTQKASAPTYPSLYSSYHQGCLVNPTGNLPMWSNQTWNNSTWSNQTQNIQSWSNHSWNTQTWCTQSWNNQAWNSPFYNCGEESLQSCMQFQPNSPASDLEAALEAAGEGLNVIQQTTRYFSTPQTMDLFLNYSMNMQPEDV
UniProt P01106: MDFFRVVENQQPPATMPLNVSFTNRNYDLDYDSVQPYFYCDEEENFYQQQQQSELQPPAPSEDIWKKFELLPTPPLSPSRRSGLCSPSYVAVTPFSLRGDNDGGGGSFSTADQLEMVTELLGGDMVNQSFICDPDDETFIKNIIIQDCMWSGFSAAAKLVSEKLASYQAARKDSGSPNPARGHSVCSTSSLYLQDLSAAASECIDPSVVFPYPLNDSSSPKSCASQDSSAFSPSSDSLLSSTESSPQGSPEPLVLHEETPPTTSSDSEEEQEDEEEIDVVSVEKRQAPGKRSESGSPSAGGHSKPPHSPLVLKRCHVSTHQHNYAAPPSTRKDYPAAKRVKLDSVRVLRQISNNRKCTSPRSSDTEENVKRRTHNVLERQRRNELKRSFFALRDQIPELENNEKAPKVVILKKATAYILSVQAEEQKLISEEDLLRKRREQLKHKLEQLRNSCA
UniProt O43474: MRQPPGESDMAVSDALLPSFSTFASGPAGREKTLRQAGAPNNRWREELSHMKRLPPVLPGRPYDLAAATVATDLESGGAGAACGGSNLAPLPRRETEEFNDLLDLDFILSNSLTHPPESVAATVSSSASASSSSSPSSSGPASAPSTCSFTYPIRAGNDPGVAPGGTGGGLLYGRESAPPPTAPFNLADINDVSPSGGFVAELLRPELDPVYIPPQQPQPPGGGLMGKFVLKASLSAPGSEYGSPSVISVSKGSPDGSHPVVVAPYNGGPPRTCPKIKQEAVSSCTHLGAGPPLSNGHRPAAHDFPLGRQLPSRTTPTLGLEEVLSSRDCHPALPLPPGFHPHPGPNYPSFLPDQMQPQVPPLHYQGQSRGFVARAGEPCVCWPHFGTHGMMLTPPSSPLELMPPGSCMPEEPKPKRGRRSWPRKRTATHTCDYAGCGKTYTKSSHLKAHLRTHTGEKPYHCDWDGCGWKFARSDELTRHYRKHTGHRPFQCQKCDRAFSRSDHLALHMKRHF

How the values were obtained:
Assay in all cases: co-IP; 500 μg lysate of A549 cells (Hsp27-WT, Hsp27-TriD) or of A549-MKK3E cells (Hsp27-WT, Hsp27-TriA) precipitated with anti-Hsp27 antibody (sc13132) overnight at 4°C and protein G-agarose; beads washed twice with lysis buffer; stemness proteins detected by Western blot
wild type Hsp27 = wild type Hsp27 (UniProt P04792)
Hsp27-S15D/S78D/S82D = Hsp27-S15D/S78D/S82D (UniProt P04792)
Hsp27-S15A/S78A/S82A = Hsp27-S15A/S78A/S82A (UniProt P04792)

Row | binding (wild type Hsp27) | binding (Hsp27-S15D/S78D/S82D) | binding (Hsp27-S15A/S78A/S82A) | Substance
1 | binds | binds | binds | Oct4 (Octamer-binding transcription factor 4) (from UniProt Q01860 1-360)
2 | binds | binds | binds | SOX2 (SRY (sex determining region Y)-box 2) (from UniProt P48431 1-317)
3 | binds | binds | binds | Nanog (from UniProt Q9H9S0 1-305)
4 | binds | binds | binds | c-Myc (from UniProt P01106 1-454)
5 | binds | binds | binds | Klf4 (Kruppel-like factor 4) (from UniProt O43474 1-513)
